# Results reported in PMC12431657, “Discovery and mechanistic insights of dibenzoylmethane as a broad spectrum inhibitor of coronavirus” (PLOS Pathogens, 2025).
# Where a name gives a salt, the structure may show the parent alone. Read-outs that look alike come from different tables or passages of the source. The campaign covered roughly 3,300 compounds. About 60 (2%) showed an effect of 50% or more. The list shows a part of the results.
# System: HCoV-OC43
# Design: species or system RD; HTS, protection from HCoV-OC43 induced cell death, luminescent cell viability (CellCounting-Lite 2.0), inhibition rate
# Conditions: 24 h post infection, 1 h compound pre-incubation, 10 µM, inhibitor
Structure (SMILES),"OC43 Inhibition rate (OC43 Inhibition rate, 24 h)",OC43 Inhibition rate
CC(C)[C@@H]1CC[C@@H](C)C[C@H]1O [(-)-Menthol],-0.7%,
"O=C(/C=C/c1ccc(O)c(O)c1)O[C@@H]1C[C@](OC(=O)/C=C/c2ccc(O)c(O)c2)(C(=O)O)C[C@@H](O)[C@H]1O [1,3-Dicaffeoylquinic acid]",,0.6%
COc1cc([C@@H]2Oc3c(O)cc([C@H]4Oc5cc(O)cc(O)c5C(=O)[C@@H]4O)cc3[C@H]2CO)ccc1O [Silychristin],,-0.5%
COC(=O)c1ccccc1O [Methyl Salicylate],,8%
O=C(O)c1ccc2ccccc2c1O [1-Hydroxy-2-naphthoic acid],,-0.4%
O=C1O[C@H]2[C@@H]3OC(=O)c4cc(O)c(O)c(O)c4-c4c(O)c(O)c5oc(=O)c6c(c(O)c(O)c7oc(=O)c4c5c76)-c4c(cc(O)c(O)c4O)C(=O)OC[C@H]3OC(O)[C@@H]2OC(=O)c2cc(O)c(O)c(O)c2-c2c1cc(O)c(O)c2O (mixture of isomers) [Punicalagin],,-1.3%
"c1csc(-c2ccc(-c3cccs3)s2)c1 [2,2':5',2''-Terthiophene]",,-0.6%
OCC1=C[C@@H](O)[C@@H]2C=CO[C@@H](O[C@@H]3O[C@H](CO)[C@@H](O)[C@H](O)[C@H]3O)[C@H]12 [Aucubin],,-2.1%
O=c1c(O)c(-c2ccc(O[C@@H]3O[C@H](CO)[C@@H](O)[C@H](O)[C@H]3O)c(O)c2)oc2cc(O)cc(O)c12 [Spiraeoside],,-0.7%
COc1c(O[C@@H]2O[C@H](CO[C@@H]3OC[C@@H](O)[C@H](O)[C@H]3O)[C@@H](O)[C@H](O)[C@H]2O)cc2occ(-c3ccc(O)cc3)c(=O)c2c1O [Tectorigenin 7-O-Xylosyl Glucoside],,1.7%
"CN(C)c1nc2c(ncn2[C@@H]2O[C@H](CO)[C@@H](O)[C@H]2O)c(=O)[nH]1 [N2,N2-Dimethylguanosine]",,-0.5%
CC(=O)NCCc1c[nH]c2ccc(O)cc12 [N-Acetyl-5-hydroxytryptamine],,0%
COc1ccc([C@H]2OC[C@H]3[C@@H]2CO[C@@H]3c2ccc(OC)c(OC)c2)cc1OC [Pinoresinol dimethyl ether],1.1%,
O=c1ccc2ccc(O)c(O)c2o1 [Daphnetin],,-1.8%
C=C[C@H]1CN2CC[C@]3(C(=O)Nc4ccccc43)[C@@H]2C[C@@H]1/C(=C\OC)C(=O)OC [Corynoxeine],,-0.3%
NCCCCCCCC(=O)O [8-Aminooctanoic acid],,-7.3%
C=C1C(=O)O[C@@H]2/C=C(\C)[C@@H](OC(C)=O)C/C=C(\COC(C)=O)C[C@@H](OC(=O)/C(C)=C/CO)[C@@H]12 [Eupalinolide A],4.1%,
OC[C@H]1O[C@@](CO)(O[C@H]2O[C@H](CO[C@@H]3O[C@H](CO)[C@@H](O)[C@H](O)[C@H]3O)[C@@H](O)[C@H](O)[C@H]2O)[C@@H](O)[C@@H]1O [Gentianose],,0.1%
C[C@]1(O)C[C@@H](O)[C@@H]2C=CO[C@@H](O[C@@H]3O[C@H](CO)[C@@H](O)[C@H](O)[C@H]3O)[C@@H]21 [Ajugol],,-0.3%

Structure (SMILES),"OC43 Inhibition rate (OC43 Inhibition rate, 24 h)",OC43 Inhibition rate
O=C(O)Cc1cc(O)ccc1O [Homogentisic acid],,-1.2%
N[C@@H](CS)C(=O)O [L-Cysteine (hydrochloride)],0%,
Nc1nc2c(ncn2[C@@H]2O[C@H](COP(=O)(O)OP(=O)(O)OP(=O)(O)O)[C@@H](O)[C@H]2O)c(=O)[nH]1 [Guanosine 5'-triphosphate (trisodium salt)],,-0.5%
O=C(O)c1cc(=O)[nH]c(=O)[nH]1 [Orotic acid],0.8%,
N[C@H](CS)C(=O)O [D-Cysteine],,0.2%
Cn1c(N)nc2c(ncn2[C@@H]2O[C@H](CO)[C@@H](O)[C@H]2O)c1=O [1-Methylguanosine],,0.9%
COC(=O)[C@]1(O)C[C@@H](O)[C@@H](O)[C@H](OC(=O)/C=C/c2ccc(O)c(O)c2)C1 [3-O-Caffeoylquinic acid methyl ester],,-0.4%
C[C@@H](O)CC(=O)O [(R)-3-Hydroxybutanoic acid],-0.8%,
CC(=O)c1ccc(C)cc1 [4'-Methylacetophenone],,-0.5%
CC(C)c1ccc2c(c1O)CC[C@H]1C3=C(CC[C@]21C)C(=O)OC3 [Triptophenolide],,-0.9%
O=c1cc(-c2ccc(O)cc2)oc2c([C@@H]3O[C@H](CO)[C@@H](O)[C@H](O)[C@H]3O)c(O)c([C@@H]3OC[C@@H](O)[C@H](O)[C@H]3O)c(O)c12 [Vicenin-1],,-1.7%
CC1(C)CC[C@]2(C(=O)O)CC[C@]3(C)C(=CC[C@@H]4[C@@]5(C)C[C@@H](O)[C@H](O)[C@@](C)(CO)[C@@H]5[C@H](O)C[C@]43C)[C@@H]2C1 [Terminolic acid],,-0.1%
O=C(O)/C=C/C=C/C(=O)O [trans-trans-Muconic acid],,-1.3%
COc1cc2c(c(OC)c1OC)-c1c(cc3c(c1OC)OCO3)[C@H](OC(=O)c1ccccc1)[C@@](C)(O)[C@@H](C)C2 [Gomisin G],,3%
C[C@H]1[C@H](C)CC[C@]2(C(=O)O)CC[C@]3(C)C(=CC[C@@H]4[C@@]5(C)C[C@@H](O)[C@H](O)[C@@](C)(CO)[C@@H]5CC[C@]43C)[C@H]12 [Asiatic acid],,-2.6%
CC1(C)CC[C@]2(CO)CC[C@]3(C)C(=CC[C@@H]4[C@@]5(C)CC[C@H](O)C(C)(C)[C@@H]5CC[C@]43C)[C@@H]2C1 [Erythrodiol],,-2.8%
C[C@H](CC[C@@H](O[C@@H]1O[C@H](CO)[C@@H](O)[C@H](O)[C@H]1O)C(C)(C)O)[C@H]1CC[C@@]2(C)[C@@H]3CC=C4[C@@H](CC[C@H](O)C4(C)C)[C@]3(C)[C@H](O)C[C@]12C [Mogroside I A1],,-0.2%
CCCCCCCCCCCCCCCCCCCCCCCC(=O)O [Lignoceric acid],,3.8%
O=C(/C=C/c1ccc(O)c(O)c1)O[C@@H](C(=O)O)[C@@H](OC(=O)/C=C/c1ccc(O)c(O)c1)C(=O)O [Chicoric acid],1.8%,

# Single records, as listed above.
# `CC(C)c1ccc2c(c1O)CC[C@H]1C3=C(CC[C@]21C)C(=O)OC3` [Triptophenolide] is entered as OC43 Inhibition rate: -0.9%
# `COc1cc2c(c(OC)c1OC)-c1c(cc3c(c1OC)OCO3)[C@H](OC(=O)c1ccccc1)[C@@](C)(O)[C@@H](C)C2` [Gomisin G] is entered as OC43 Inhibition rate: 3%
# `CC1(C)CC[C@]2(CO)CC[C@]3(C)C(=CC[C@@H]4[C@@]5(C)CC[C@H](O)C(C)(C)[C@@H]5CC[C@]43C)[C@@H]2C1` [Erythrodiol] is entered as OC43 Inhibition rate: -2.8%

# More compounds:

Structure (SMILES),"OC43 Inhibition rate (OC43 Inhibition rate, 24 h)",OC43 Inhibition rate
CC(C)(C)CC(C)(C)c1ccc(O)c(Cc2ccc(Cl)cc2Cl)c1 [Clofoctol],,-0.9%
COc1cc([C@H]2OC[C@@H]3[C@@H]2CO[C@H]3c2cc(OC)c(O[C@@H]3O[C@H](CO)[C@@H](O)[C@H](O)[C@H]3O)c(OC)c2)cc(OC)c1O[C@@H]1O[C@H](CO)[C@@H](O)[C@H](O)[C@H]1O [Eleutheroside E],,-0.2%
O=c1c(O)cc([C@H]2Oc3cc(O)cc(O)c3C[C@H]2O)cc2c([C@H]3Oc4cc(O)cc(O)c4C[C@H]3O)cc(O)c(O)c12 [Theaflavin],,-2.4%
N[C@@H](Cc1ccc(O)cc1)C(=O)O [L-Tyrosine],,-0.1%
C[C@@H]1O[C@@H](O[C@H]2[C@H](O[C@H]3CC[C@]4(C)[C@H]5CC=C6[C@@H]7CC(C)(C)CC[C@]7(C(=O)O[C@@H]7O[C@H](CO[C@@H]8O[C@H](CO)[C@@H](O[C@@H]9O[C@@H](C)[C@H](O)[C@@H](O)[C@H]9O)[C@H](O)[C@H]8O)[C@@H](O)[C@H](O)[C@H]7O)CC[C@@]6(C)[C@]5(C)CC[C@H]4C3(C)C)OC[C@H](O)[C@@H]2O)[C@H](O)[C@H](O)[C@H]1O [Hederasaponin B],,1.9%
"CC1C(=O)CCC1=O [2-Methylcyclopentane-1,3-dione]",,1.4%
COc1ccc(-c2oc3c(CCC(C)(C)O)c(O[C@@H]4O[C@H](CO)[C@@H](O)[C@H](O)[C@H]4O)cc(O)c3c(=O)c2O)cc1 [Maohuoside A],,0.3%
COC(=O)[C@H]1[C@H]2C[C@@H]3c4[nH]c5cc(OC)ccc5c4CCN3C[C@H]2C[C@@H](OC(=O)c2cc(OC)c(OC)c(OC)c2)[C@@H]1OC [Reserpine],22.9%,
COc1cc(C(C)=O)ccc1O [Apocynin],,0.3%
CC(=O)O[C@H]1C[C@H]2C(=O)O[C@H](c3ccoc3)C[C@@]2(C)[C@@H]2C[C@@H]3C[C@@H](C(=O)O3)[C@@H]12 [8-Epidiosbulbin E acetate],,-0.7%
"O=C(/C=C/c1ccc(O)c(O)c1)O[C@@H]1[C@H](O)C[C@@](O)(C(=O)O)C[C@H]1OC(=O)/C=C/c1ccc(O)c(O)c1 [4,5-Dicaffeoylquinic acid]",,-0.7%
CC1=CC[C@@H](C(C)(C)O)CC1 [α-Terpineol],-0.5%,
C[C@H](O)[C@H](O)c1cnc2nc(N)[nH]c(=O)c2n1 [6-Biopterin],,6.1%
OC[C@H]1O[C@@H](O[C@H]2[C@H](O)[C@@H](O)[C@H](O)O[C@@H]2CO)[C@H](O)[C@@H](O)[C@H]1O [Lactose],,0.1%
CCOC(=O)c1c(C)cc(O)cc1O [Ethyl Orsellinate],,-0.1%
c1ccc2c(c1)[nH]c1cnccc12 [Norharmane],,20.7%
C=C[C@H]1CN2CC[C@H]1C[C@H]2[C@H](O)c1ccnc2ccc(OC)cc12 [Quinine (hydrochloride dihydrate)],5%,
C[N+](C)(C)[O-] [Trimethylamine N-oxide],-1%,
